The supplement of paper PMC10849652
Some of the results follow.

Amino acid sequences for entries named in this document (tags omitted). A change or cut given only in a name is not applied to a line headed by its entry.
UniProt Q9NR28: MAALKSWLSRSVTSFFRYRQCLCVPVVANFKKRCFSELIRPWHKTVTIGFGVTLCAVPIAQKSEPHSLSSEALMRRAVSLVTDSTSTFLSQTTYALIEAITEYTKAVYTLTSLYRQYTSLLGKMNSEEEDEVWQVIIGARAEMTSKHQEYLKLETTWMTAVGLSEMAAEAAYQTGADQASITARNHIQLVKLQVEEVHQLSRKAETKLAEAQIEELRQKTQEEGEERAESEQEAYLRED
UniProt Q9NVM6: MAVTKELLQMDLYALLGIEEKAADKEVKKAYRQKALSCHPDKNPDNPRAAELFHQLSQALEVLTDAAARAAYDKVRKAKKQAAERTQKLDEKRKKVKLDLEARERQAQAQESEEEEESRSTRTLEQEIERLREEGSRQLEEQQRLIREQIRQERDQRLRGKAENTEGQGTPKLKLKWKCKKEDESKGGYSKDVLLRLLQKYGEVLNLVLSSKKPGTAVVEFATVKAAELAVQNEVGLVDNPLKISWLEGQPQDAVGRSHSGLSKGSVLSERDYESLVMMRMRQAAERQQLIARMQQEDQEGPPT
UniProt Q99766: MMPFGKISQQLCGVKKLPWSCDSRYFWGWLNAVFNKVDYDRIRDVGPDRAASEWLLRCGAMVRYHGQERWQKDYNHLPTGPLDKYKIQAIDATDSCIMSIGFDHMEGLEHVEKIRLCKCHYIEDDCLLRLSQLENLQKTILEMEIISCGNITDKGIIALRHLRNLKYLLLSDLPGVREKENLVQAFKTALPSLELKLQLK
UniProt Q8N5I4: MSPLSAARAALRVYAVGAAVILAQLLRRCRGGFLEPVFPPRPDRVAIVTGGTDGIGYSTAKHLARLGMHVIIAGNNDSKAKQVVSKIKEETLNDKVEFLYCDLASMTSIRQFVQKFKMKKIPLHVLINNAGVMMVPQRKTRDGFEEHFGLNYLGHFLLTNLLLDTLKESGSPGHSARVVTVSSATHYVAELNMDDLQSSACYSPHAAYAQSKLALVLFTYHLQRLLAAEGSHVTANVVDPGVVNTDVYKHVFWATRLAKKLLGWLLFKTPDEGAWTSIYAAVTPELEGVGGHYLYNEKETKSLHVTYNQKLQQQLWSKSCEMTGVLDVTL
UniProt Q9Y2L1: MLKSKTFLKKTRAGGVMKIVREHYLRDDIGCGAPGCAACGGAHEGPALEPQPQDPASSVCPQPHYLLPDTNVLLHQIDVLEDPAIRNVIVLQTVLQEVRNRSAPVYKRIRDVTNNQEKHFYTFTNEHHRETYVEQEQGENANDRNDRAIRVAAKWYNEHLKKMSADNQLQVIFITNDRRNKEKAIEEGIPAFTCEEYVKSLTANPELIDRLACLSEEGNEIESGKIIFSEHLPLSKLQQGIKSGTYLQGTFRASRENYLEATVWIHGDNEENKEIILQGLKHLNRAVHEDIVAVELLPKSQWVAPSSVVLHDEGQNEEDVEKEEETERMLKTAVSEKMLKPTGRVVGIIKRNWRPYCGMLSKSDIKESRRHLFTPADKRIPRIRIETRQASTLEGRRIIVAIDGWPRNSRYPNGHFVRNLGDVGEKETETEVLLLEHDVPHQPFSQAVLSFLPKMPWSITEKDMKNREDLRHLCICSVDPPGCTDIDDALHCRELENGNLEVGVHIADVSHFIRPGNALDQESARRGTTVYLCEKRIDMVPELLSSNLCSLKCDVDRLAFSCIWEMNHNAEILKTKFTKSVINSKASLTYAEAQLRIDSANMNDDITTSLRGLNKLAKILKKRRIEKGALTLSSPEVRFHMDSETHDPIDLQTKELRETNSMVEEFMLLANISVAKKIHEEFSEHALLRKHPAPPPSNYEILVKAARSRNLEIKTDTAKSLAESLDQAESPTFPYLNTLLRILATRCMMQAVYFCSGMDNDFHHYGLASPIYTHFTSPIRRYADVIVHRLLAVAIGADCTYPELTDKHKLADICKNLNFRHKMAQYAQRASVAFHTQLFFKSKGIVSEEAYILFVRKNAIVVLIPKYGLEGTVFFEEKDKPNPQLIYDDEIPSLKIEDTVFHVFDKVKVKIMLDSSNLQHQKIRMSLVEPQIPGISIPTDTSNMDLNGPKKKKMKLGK
UniProt Q96JB1: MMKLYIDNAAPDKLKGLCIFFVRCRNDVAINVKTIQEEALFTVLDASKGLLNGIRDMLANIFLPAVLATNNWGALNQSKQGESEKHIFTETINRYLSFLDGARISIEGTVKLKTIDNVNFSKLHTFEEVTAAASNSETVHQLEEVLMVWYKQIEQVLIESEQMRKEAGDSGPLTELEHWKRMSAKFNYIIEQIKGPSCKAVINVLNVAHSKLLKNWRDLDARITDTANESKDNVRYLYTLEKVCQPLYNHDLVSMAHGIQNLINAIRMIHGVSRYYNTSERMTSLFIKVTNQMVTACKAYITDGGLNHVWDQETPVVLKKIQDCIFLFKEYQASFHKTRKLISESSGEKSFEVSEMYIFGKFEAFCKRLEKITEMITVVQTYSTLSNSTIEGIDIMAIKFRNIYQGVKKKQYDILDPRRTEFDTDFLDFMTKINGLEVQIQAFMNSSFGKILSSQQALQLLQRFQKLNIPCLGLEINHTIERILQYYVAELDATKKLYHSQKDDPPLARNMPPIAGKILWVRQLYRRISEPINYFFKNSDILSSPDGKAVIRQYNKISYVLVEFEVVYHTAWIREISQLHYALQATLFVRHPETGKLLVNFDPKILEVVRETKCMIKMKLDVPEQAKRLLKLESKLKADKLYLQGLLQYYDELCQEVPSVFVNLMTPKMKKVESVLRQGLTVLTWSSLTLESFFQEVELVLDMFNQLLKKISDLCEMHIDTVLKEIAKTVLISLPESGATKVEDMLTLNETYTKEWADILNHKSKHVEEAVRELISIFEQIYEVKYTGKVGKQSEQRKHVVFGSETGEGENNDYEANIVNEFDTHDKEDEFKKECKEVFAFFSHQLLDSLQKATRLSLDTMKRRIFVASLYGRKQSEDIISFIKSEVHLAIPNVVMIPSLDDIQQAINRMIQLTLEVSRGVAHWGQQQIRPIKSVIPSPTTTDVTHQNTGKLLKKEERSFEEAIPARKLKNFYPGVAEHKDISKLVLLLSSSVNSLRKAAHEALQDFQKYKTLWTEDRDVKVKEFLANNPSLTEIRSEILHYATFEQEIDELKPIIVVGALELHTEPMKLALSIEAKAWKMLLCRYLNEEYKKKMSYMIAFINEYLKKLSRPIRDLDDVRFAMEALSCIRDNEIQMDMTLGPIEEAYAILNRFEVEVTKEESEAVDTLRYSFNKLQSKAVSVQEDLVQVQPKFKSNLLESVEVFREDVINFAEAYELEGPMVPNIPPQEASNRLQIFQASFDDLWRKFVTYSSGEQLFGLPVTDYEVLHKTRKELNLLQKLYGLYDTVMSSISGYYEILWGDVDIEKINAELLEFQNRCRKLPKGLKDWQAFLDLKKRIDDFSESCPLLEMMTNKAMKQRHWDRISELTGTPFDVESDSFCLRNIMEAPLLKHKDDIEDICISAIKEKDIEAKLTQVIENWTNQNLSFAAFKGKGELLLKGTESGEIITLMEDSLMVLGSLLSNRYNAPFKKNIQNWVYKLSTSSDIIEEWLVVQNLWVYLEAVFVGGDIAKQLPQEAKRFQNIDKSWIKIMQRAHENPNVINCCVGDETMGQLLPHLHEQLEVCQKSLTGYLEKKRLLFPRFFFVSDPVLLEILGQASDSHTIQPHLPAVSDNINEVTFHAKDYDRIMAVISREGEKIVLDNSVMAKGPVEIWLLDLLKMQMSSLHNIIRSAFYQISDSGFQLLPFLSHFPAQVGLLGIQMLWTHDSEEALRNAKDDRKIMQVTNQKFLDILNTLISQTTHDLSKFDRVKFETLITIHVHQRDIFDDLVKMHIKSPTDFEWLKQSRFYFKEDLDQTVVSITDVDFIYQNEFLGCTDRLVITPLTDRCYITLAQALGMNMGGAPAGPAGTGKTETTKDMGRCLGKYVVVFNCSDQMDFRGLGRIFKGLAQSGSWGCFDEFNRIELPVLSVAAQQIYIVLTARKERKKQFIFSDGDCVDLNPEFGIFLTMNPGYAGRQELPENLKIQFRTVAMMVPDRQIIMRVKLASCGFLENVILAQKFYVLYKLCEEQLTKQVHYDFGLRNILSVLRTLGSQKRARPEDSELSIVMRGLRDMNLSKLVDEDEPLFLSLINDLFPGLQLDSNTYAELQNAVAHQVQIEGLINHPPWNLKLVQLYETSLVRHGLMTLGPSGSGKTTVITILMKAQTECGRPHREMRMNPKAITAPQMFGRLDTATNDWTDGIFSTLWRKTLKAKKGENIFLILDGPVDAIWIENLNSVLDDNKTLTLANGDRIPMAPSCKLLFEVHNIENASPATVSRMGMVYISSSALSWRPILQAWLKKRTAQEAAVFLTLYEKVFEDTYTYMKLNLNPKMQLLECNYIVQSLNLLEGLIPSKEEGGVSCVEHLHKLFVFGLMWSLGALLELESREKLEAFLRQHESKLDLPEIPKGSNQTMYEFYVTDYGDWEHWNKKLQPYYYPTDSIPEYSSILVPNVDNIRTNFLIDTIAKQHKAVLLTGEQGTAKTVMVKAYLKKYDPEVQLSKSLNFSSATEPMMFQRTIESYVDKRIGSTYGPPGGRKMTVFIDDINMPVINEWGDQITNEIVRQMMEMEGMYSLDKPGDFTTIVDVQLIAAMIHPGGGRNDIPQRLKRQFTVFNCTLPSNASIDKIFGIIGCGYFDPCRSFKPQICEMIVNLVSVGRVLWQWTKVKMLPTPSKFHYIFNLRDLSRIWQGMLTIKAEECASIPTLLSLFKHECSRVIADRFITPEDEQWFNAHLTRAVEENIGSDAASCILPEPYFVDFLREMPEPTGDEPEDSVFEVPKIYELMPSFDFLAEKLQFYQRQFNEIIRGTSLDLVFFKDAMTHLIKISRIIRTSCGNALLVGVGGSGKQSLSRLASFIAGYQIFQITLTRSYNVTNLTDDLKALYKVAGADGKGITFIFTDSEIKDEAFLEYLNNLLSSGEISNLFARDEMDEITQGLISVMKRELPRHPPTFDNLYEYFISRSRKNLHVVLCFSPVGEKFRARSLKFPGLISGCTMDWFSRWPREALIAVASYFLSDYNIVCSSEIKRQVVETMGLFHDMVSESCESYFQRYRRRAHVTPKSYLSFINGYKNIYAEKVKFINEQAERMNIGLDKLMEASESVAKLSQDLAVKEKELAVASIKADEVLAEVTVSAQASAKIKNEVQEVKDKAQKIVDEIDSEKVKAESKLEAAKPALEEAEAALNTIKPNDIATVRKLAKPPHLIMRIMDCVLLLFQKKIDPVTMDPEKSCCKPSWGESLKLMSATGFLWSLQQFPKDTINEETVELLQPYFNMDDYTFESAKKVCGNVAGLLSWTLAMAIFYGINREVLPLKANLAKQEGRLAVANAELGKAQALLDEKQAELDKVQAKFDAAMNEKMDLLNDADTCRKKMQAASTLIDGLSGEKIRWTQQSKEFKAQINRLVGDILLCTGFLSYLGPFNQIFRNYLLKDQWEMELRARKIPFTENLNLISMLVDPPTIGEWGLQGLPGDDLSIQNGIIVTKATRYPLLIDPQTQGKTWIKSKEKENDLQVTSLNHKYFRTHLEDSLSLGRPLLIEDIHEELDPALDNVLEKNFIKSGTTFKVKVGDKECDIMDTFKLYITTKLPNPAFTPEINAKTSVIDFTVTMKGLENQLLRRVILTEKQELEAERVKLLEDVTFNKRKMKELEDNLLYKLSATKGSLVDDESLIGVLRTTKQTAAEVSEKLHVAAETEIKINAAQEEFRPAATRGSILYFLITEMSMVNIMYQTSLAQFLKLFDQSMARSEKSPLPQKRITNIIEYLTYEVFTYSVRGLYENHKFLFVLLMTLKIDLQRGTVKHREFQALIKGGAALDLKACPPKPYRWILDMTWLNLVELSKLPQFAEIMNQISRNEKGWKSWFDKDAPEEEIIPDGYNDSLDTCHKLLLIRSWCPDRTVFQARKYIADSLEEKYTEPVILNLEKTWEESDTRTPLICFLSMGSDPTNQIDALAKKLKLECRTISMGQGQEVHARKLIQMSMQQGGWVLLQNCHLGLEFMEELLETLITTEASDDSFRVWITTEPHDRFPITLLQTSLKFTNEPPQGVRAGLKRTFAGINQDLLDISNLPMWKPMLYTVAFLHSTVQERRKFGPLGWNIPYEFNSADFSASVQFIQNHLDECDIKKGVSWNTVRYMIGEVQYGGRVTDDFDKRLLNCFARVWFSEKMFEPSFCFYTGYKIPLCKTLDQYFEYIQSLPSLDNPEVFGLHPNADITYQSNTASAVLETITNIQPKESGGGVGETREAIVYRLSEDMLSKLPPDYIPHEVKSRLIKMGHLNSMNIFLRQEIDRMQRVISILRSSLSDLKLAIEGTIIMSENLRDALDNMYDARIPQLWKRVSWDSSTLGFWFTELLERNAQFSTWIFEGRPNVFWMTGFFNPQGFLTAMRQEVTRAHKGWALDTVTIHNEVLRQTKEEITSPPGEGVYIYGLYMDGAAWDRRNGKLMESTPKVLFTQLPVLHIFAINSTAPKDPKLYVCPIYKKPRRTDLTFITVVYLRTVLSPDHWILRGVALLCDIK

Key:
Assay in all cases: log2 fold change, soluble protein after heating vs DMSO (PISA); higher = thermal stabilisation; K562 lysate, 10 uM; active = over 0.2 and 3.5 SD of the protein, either way, in both replicates (recomputed)
[1] = compound: NCC(=O)Nc1ccc(-n2nc(C(F)(F)F)cc2-c2ccc3c(ccc4ccccc43)c2)cc1
Procedure, shortened: (§1)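 Following dounce homogenisation of K562 pellets in PBS pH 7.4 with 1 mM MgCl2, crude extract at 1 mg/mL protein was incubated for 30 min with 10 μM compound. Aliquots were then heated for 3 min over 48°C-58°C and pooled, NP-40 was added to 0.5% at 4°C, and soluble protein was recovered as the supernatant at 21,000xg for 90 min. Channel-sum-equalised TMTpro 16plex LC-MS/MS quantified this protein. Each value, from duplicates, is a log-two fold change in thermal stability relative to solvent controls.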

[2] = compound: O=C(CCCCCCC(=O)Nc1ccccc1)NO [vorinostat]
Procedure, shortened: as §1

[3] = compound: O=C(O)c1ccc2c(c1)nc(Nc1cccc(Cl)c1)c1ccncc12 [silmitasertib]
Procedure, shortened: as §1

[4] = compound: O=C1NC(=O)C(c2cnc3ccccn23)=C1c1cn2c3c(cc(F)cc13)CN(C(=O)N1CCCCC1)CC2
Procedure, shortened: as §1

[5] = compound: c1cn2cc(-c3ccc4cn[nH]c4c3)nc(Nc3ccc(N4CCOCC4)cc3)c2n1 [entospletinib]
Procedure, shortened: as §1

Measured: log2 fold change

DGCR8 (UniProt Q8WYQ5)
inactive: [1] -0.027 | [3] -0.041 | [4] -0.054 | [5] -0.066
active: [2] -0.38

DIABLO (UniProt Q9NR28)
inactive: [1] -0.017 | [2] 0.135 | [3] -0.002 | [4] -0.007 | [5] 0.019

DLG5 (UniProt Q8TDM6)
inactive: [1] 0.127

DNAJC17 (UniProt Q9NVM6)
inactive: [1] 0 | [2] -0.02 | [3] -0.025 | [4] -0.1 | [5] 0.027

DIDO1 (UniProt Q9BTC0)
inactive: [1] -0.006 | [2] -0.105 | [3] -0.045 | [4] 0.012 | [5] -0.012

DLG1 isoform 2 (UniProt Q12959)
inactive: [1] -0.005 | [2] 0.006 | [3] 0.017 | [4] 0.014 | [5] -0.026

DMAC2L (UniProt Q99766)
inactive: [1] -0.023 | [2] -0.174 | [3] 0.037 | [4] -0.038 | [5] 0.022

DHRSX (UniProt Q8N5I4)
inactive: [1] 0.011 | [2] 0.044 | [3] -0.177

DHX34 (UniProt Q14147)
inactive: [1] 0.066 | [2] -0.081 | [3] -0.009 | [4] -0.01 | [5] 0.043

DHX36 (UniProt Q9H2U1)
inactive: [1] 0.011 | [2] -0.006 | [3] -0.007 | [4] -0.016 | [5] -0.029

DNPEP (UniProt Q9ULA0)
inactive: [1] -0.008 | [2] 0.112 | [3] -0.006 | [4] 0.014 | [5] 0.007

DLD (UniProt P09622)
inactive: [1] -0.003 | [3] 0.004 | [4] 0.008 | [5] 0.01
active: [2] -1.96

DNAJC3 (UniProt Q13217)
inactive: [1] -0.029 | [2] 0.064 | [3] 0.017 | [4] 0.033 | [5] 0

DNPH1 (UniProt H0Y8X4)
inactive: [1] -0.029 | [2] 0.017 | [3] 0.004 | [4] -0.004 | [5] 0.003

DGKZ (UniProt Q13574)
inactive: [1] 0.036 | [2] -0.049 | [3] -0.041 | [4] -0.039 | [5] 0

DMAC1 (UniProt Q96GE9)
inactive: [1] -0.031

DGAT1 (UniProt O75907)
inactive: [1] -0.016 | [2] -0.045 | [3] 0.027 | [4] -0.063 | [5] -0.032

DHX15 (UniProt O43143)
inactive: [1] -0.006 | [2] 0.052 | [3] 0.004 | [4] 0.014 | [5] 0.006

DIS3 (UniProt Q9Y2L1)
inactive: [1] 0.008 | [2] -0.07 | [3] -0.014 | [4] 0.008 | [5] 0.072

DNAJC12 (UniProt Q9UKB3)
inactive: [1] -0.005 | [2] 0.061 | [3] -0.024 | [4] -0.114 | [5] 0

DPCD (UniProt Q9BVM2)
inactive: [1] -0.103 | [2] -0.081 | [3] -0.081 | [4] -0.085 | [5] -0.015

DNAH12 (UniProt Q6ZR08)
inactive: [1] 0.037

Six successive records from above:
DGKZ (UniProt Q13574)
inactive: [1] 0.036 | [2] -0.049 | [3] -0.041 | [4] -0.039 | [5] 0

DMAC1 (UniProt Q96GE9)
inactive: [1] -0.031

DGAT1 (UniProt O75907)
inactive: [1] -0.016 | [2] -0.045 | [3] 0.027 | [4] -0.063 | [5] -0.032

DHX15 (UniProt O43143)
inactive: [1] -0.006 | [2] 0.052 | [3] 0.004 | [4] 0.014 | [5] 0.006

DIS3 (UniProt Q9Y2L1)
inactive: [1] 0.008 | [2] -0.07 | [3] -0.014 | [4] 0.008 | [5] 0.072

DNAJC12 (UniProt Q9UKB3)
inactive: [1] -0.005 | [2] 0.061 | [3] -0.024 | [4] -0.114 | [5] 0

Additional entries

DMXL1 (UniProt Q9Y485)
active: [2] -0.237
inactive: [1] 0.022 | [3] 0.044 | [4] -0.013 | [5] 0.022

DICER1 (UniProt Q9UPY3)
active: [2] -0.58
inactive: [1] 0.022 | [3] 0.042 | [4] 0.001 | [5] -0.004

DNAH8 (UniProt Q96JB1)
inactive: [1] 0.134 | [2] 0.284 | [3] -0.143 | [4] 0.094 | [5] -0.015

DHRS7B (UniProt Q6IAN0)
inactive: [1] -0.047 | [2] -0.031 | [3] -0.005 | [4] -0.041 | [5] 0.023

DHRS4 (UniProt Q9BTZ2)
inactive: [1] -0.026 | [2] -0.009 | [3] -0.003 | [4] -0.014 | [5] -0.019
